This passage reports survivor count and T/C results from PubChem BioAssay AID330 (DTP/NCI, 2004).

SMILES strings stand for the structures. The list shows only some results of the screen, not a fair sample: it gathers tests that were run many times, whatever their T/C, doses with no T/C, and many T/C values between a quarter and a half above the control. Other doses and runs of a compound stand elsewhere. T/C gives the treated animals as a percentage of the vehicle group. Some doses have a count of surviving animals in place of a T/C: the source holds a T/C of zero for them, seemingly a mark for toxic or unscored doses. Some doses without a T/C left all or most animals alive at the check, yet need not have been tolerated: survival well below the control is almost never listed, so the zero probably covers shortened survival too. Survivors were counted at the toxicity check, usually on the fifth day, unless a day is given; later deaths do not show. Schedules are NCI's codes, read here as Q, the interval in days (D) or hours (H), X, the number of doses. Some entries hold several experiments; their values stand side by side, smallest first. Some structures stand for samples that the source files as different forms (salt, stereo form or complex); doses refer to the form tested. For survival time, this PubChem deposit counts one and a half times the control or more as active, and values a quarter to a half above the control carry no call in these data; other NCI protocols may use other cut-offs.

In the test the test system is P388 leukemia ip, CD2F1 mice, survival T/C. Kind of test: NCI In Vivo Anticancer Drug Screen. Data for tumor model P388 Leukemia (intraperitoneal) in CD2F1 (CDF1) mice. To be noted: T/C endpoint: median survival time, higher T/C = longer survival.
The mark [1] stands for this setting: dose: 240.0 mg/kg/injection, schedule: Q01DX005 (ip), vehicle: Klucel (hydroxypropylcellulose) (HPC).
Setting [2] is: dose: 100.0 mg/kg/injection, schedule: Q01DX009 (ip), vehicle: saline with Tween-80.
The mark [3] stands for this setting: dose: 100.0 mg/kg/injection, schedule: Q01DX009 (ip), vehicle: saline.
The mark [4] stands for this setting: dose: 200.0 mg/kg/injection, schedule: Q01DX009 (ip), vehicle: saline.
The mark [5] stands for this setting: dose: 50.0 mg/kg/injection, schedule: Q04DX003 (ip), vehicle: Klucel (hydroxypropylcellulose) (HPC).
Where [6] appears, read: dose: 100.0 mg/kg/injection, schedule: Q04DX003 (ip), vehicle: Klucel (hydroxypropylcellulose) (HPC).
[7] abbreviates: dose: 200.0 mg/kg/injection, schedule: Q04DX003 (ip), vehicle: Klucel (hydroxypropylcellulose) (HPC).
Setting [8] is: dose: 400.0 mg/kg/injection, schedule: Q04DX003 (ip), vehicle: Klucel (hydroxypropylcellulose) (HPC).

For `CONC(=O)N/N=C\c1c(CO)cnc(C)c1O`, the survivor count by setting is: (dose: 60.0 mg/kg/injection, schedule: Q01DX005 (ip), vehicle: Klucel (hydroxypropylcellulose) (HPC)) 0 of 6; (dose: 120.0 mg/kg/injection, schedule: Q01DX005 (ip), vehicle: Klucel (hydroxypropylcellulose) (HPC)) 0 of 6; under setting [1], 0 of 6.

Turning to `C/C(=N\NC(=O)CCCl)c1ccc([N+](=O)[O-])cc1`, the survivor count is recorded as 6 of 6 (dose: 42.0 mg/kg/injection, schedule: Q01DX009 (ip), vehicle: saline with Tween-80); 6 of 6 (dose: 84.0 mg/kg/injection, schedule: Q01DX009 (ip), vehicle: saline with Tween-80); 5 of 6 (dose: 168.0 mg/kg/injection, schedule: Q01DX009 (ip), vehicle: saline with Tween-80).

With `CC(C)CC(C(=O)O)N(CC(=O)O)CC(=O)O` (configuration not stated), the survivor count is given as 4 of 5 (dose: 50.0 mg/kg/injection, schedule: Q01DX005 (ip), vehicle: saline); 5 of 5 (dose: 100.0 mg/kg/injection, schedule: Q01DX005 (ip), vehicle: saline); 5 of 5 (dose: 200.0 mg/kg/injection, schedule: Q01DX005 (ip), vehicle: saline).

Regarding `C/C=C(\C)C(C)(C#N)Nc1ccccc1` (configuration not stated), the survivor count reads like this: under setting [2], 5 of 6; (dose: 400.0 mg/kg/injection, schedule: Q01DX009 (ip), vehicle: saline with Tween-80) 6 of 6.

As for `C1=C([P+](c2ccccc2)(c2ccccc2)c2ccccc2)CCCC1`, the T/C (dose: 6.25 mg/kg/injection, schedule: Q01DX009 (ip), vehicle: Klucel (hydroxypropylcellulose) (HPC)) is 137 % of control. Also, the survivor count by setting is: (dose: 12.5 mg/kg/injection, schedule: Q01DX009 (ip), vehicle: Klucel (hydroxypropylcellulose) (HPC)) 6 of 6; (dose: 25.0 mg/kg/injection, schedule: Q01DX009 (ip), vehicle: Klucel (hydroxypropylcellulose) (HPC)) 0 of 6; (dose: 50.0 mg/kg/injection, schedule: Q01DX009 (ip), vehicle: Klucel (hydroxypropylcellulose) (HPC)) 0 of 6; (dose: 100.0 mg/kg/injection, schedule: Q01DX009 (ip), vehicle: Klucel (hydroxypropylcellulose) (HPC)) 0 of 6; (dose: 200.0 mg/kg/injection, schedule: Q01DX009 (ip), vehicle: Klucel (hydroxypropylcellulose) (HPC)) 0 of 6.

For `CCN(CC)C(=O)N1CC1`, under “dose: 400.0 mg/kg/injection, schedule: Q04DX002 (ip), vehicle: saline”, the survivor count is on record as 0 of 6.

For the compound `O=C1C2=C(Nc3cc(Cl)ccc3N2)OC1c1ccc(Cl)c(Cl)c1` (configuration not stated), the survivor count (dose: 100.0 mg/kg/injection, schedule: Q01DX005 (ip), vehicle: Klucel (hydroxypropylcellulose) (HPC)) was 6 of 6.

`COC(=O)NC(=O)CCC(=O)O`: the survivor count runs as follows: under setting [3], 5 of 6; under setting [4], 5 of 6.

Take `NC(N)=N/N=C\c1ccnc2ccccc12`: the survivor count is, setting by setting: (dose: 120.0 mg/kg/injection, schedule: Q01DX005 (ip), vehicle: saline) 0 of 6; (dose: 240.0 mg/kg/injection, schedule: Q01DX005 (ip), vehicle: saline) 0 of 6.

With `NC(CCl)=NCC1C2CC3CC(C2)CC1C3` (configuration not stated), the T/C is, setting by setting: (dose: 15.0 mg/kg/injection, schedule: Q01DX005 (ip), vehicle: saline with Tween-80) 127 and 131 % of control; (dose: 30.0 mg/kg/injection, schedule: Q01DX005 (ip), vehicle: saline with Tween-80) 126 and 135 % of control. The survivor count runs as follows: (dose: 60.0 mg/kg/injection, schedule: Q01DX005 (ip), vehicle: saline with Tween-80) 1 of 6 and 5 of 6; (dose: 120.0 mg/kg/injection, schedule: Q01DX005 (ip), vehicle: saline with Tween-80) 0 of 6; (dose: 240.0 mg/kg/injection, schedule: Q01DX005 (ip), vehicle: saline with Tween-80) 0 of 6.

Take `N#CC1(C#N)C(C#N)(C#N)C12CCCCCC2`: the survivor count is 4 of 6 under setting [5], 1 of 6 under setting [6], 0 of 6 under setting [7] and 0 of 6 under setting [8].

Turning to `CCNc1ncnc2c1cnn2C`, the survivor count (dose: 100.0 mg/kg/injection, schedule: Q01DX009 (ip), vehicle: saline sonified) was 6 of 6; the survivor count (dose: 200.0 mg/kg/injection, schedule: Q01DX009 (ip), vehicle: saline sonified) is 0 of 6; the survivor count (dose: 400.0 mg/kg/injection, schedule: Q04DX003 (ip), vehicle: saline sonified) is 3 of 6.

As to `CCOC(=O)[C]1([Pb]([CH3])([CH3])[CH3])N=NC(C(=O)OC)=C1C(=O)OC` (configuration not stated), the survivor count (dose: 6.25 mg/kg/injection, schedule: Q01DX009 (ip), vehicle: saline) is listed as 5 of 6; the survivor count (dose: 12.5 mg/kg/injection, schedule: Q01DX009 (ip), vehicle: saline) is on record as 0 of 6; the survivor count (dose: 25.0 mg/kg/injection, schedule: Q01DX009 (ip), vehicle: saline) is 0 of 6; the survivor count (dose: 50.0 mg/kg/injection, schedule: Q01DX009 (ip), vehicle: saline) is recorded as 0 of 6; the survivor count under setting [3] is listed as 0 of 6; the survivor count under setting [4] is 0 of 6.

As for `C[C@@H]1C(=O)O[C@H]2[C@H]1CC[C@@]1(C)C[C@@H](I)C(=O)[C@@H](C)[C@H]21`, under setting [1], the survivor count is listed as 0 of 6.

For `CCN(CC)N=Nc1ccc(NC(C)=O)cc1`, the survivor count by setting is: (dose: 25.0 mg/kg/injection, schedule: Q04DX003 (ip), vehicle: Klucel (hydroxypropylcellulose) (HPC)) 3 of 6; under setting [5], 0 of 6; under setting [6], 0 of 6 and 2 of 6; under setting [7], 0 of 6; under setting [8], 0 of 6.

On to `C#CCN(Cc1ccc2nc(N)[nH]c(=O)c2c1)c1ccc(C(=O)NC(CCC(=O)O)C(=O)O)cc1` (configuration not stated), for which the T/C was 128 % of control (dose: 30.0 mg/kg/injection, schedule: Q01DX005 (ip), vehicle: sodium bicarbonate); 127 % of control (dose: 60.0 mg/kg/injection, schedule: Q01DX005 (ip), vehicle: sodium bicarbonate); 147 % of control (dose: 100.0 mg/kg/injection, schedule: Q01DX005 (ip), vehicle: alkali diluted with water, evaluated on day 30); 138 % of control (dose: 100.0 mg/kg/injection, schedule: Q01DX005 (ip), vehicle: alkali diluted with water, evaluated on day 45); 132 % of control (dose: 100.0 mg/kg/injection, schedule: Q01DX005 (ip), vehicle: water, evaluated on day 20); 130 % of control (dose: 100.0 mg/kg/injection, schedule: Q01DX005 (ip), vehicle: water, evaluated on day 30). The T/C by setting is: (dose: 120.0 mg/kg/injection, schedule: Q01DX005 (ip), vehicle: sodium bicarbonate) 145 % of control; (dose: 125.0 mg/kg/injection, schedule: Q01DX005 (ip), vehicle: alkali diluted with water, evaluated on day 30) 144 % of control; (dose: 125.0 mg/kg/injection, schedule: Q01DX005 (ip), vehicle: alkali diluted with water, evaluated on day 45) 135 % of control. Besides, the survivor count (dose: 200.0 mg/kg/injection, schedule: Q01DX005 (ip), vehicle: water) was 2 of 6 and 5 of 6.

Take `COc1cc2cc(c1Cl)N(C)C(=O)CC(OC(=O)C(C)NC(=O)C(C)C)C1(C)OC1C(C)C1CC(O)(NC(=O)O1)C(OC)/C=C/C=C(C)C2OC` (configuration not stated): the T/C reads like this: (dose: 4.0 micrograms/kg/injection, schedule: Q01DX009 (ip), vehicle: distilled water + alcohol) 126 % of control; (dose: 32.0 micrograms/kg/injection, schedule: Q01DX009 (ip), vehicle: distilled water + alcohol) 130 % of control; (dose: 64.0 micrograms/kg/injection, schedule: Q01DX009 (ip), vehicle: distilled water + alcohol) 132 % of control; (dose: 128.0 micrograms/kg/injection, schedule: Q01DX009 (ip), vehicle: distilled water + alcohol) 132 % of control.

With `CCCCCC(CN(C)C)C(=O)/C=C/c1ccc(Cl)cc1` (configuration not stated), under setting [2], the survivor count is given as 0 of 6.
